Data from patent publication US7893056B2, “Peptide deformylase inhibitors” (GlaxoSmithKline LLC, priority 2007, dated 2011).
Some results were stated once for a whole list of compounds, not compound by compound.

Key:
[1] = molecular target: T1, Staphylococcus aureus PDF (SaPDF) (Staphylococcus aureus, UniProt P68826); experiment: PDF IC50 assay (FDH-coupled), S. aureus PDF; format: biochemical; settings: read-out: IC50, inhibition of S. aureus PDF activity
T1 sequence (P68826 1-183): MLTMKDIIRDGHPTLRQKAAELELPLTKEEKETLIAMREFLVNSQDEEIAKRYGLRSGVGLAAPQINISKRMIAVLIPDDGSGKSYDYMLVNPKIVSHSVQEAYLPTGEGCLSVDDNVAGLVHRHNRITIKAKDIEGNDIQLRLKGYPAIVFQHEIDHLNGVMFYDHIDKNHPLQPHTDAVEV

[2] = molecular target: T2, Streptococcus pneumoniae PDF (Streptococcus pneumoniae serotype 4, UniProt Q9F2F0); experiment: PDF IC50 assay (FDH-coupled), S. pneumoniae PDF; format: biochemical; settings: read-out: IC50, inhibition of S. pneumoniae PDF activity
T2 sequence (Q9F2F0 1-203): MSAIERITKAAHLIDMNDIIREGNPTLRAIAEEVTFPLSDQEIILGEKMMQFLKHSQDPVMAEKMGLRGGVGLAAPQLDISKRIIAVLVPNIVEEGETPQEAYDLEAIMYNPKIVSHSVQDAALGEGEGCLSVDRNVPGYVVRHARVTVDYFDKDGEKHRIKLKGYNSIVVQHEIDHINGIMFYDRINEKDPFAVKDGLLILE

| Structure (SMILES) | IC50 [1] [nM] | IC50 [2] [nM] |
| --- | --- | --- |
| CN1CCN(c2nc(Cl)nc(NNC(=O)[C@H](CC3CCCC3)CN(O)C=O)c2F)CC12CC2 [Example 172, [(2R)-3-{2-[2-Chloro-5-fluoro-6-(4-methyl-4,7-diazaspiro[2.5]oct-7-yl)-4-pyrimidinyl]hydrazino}-2-(cyclopentylmethyl)-3-oxopropyl]hydroxyformamide] | ≤ 100 | ≤ 100 |
| Cc1nc(NNC(=O)[C@H](CC2CCCC2)CN(O)C=O)c(F)c(N[C@H]2CC=CCN(C)C2=O)n1 [Example 94, {(2R)-2-(Cyclopentylmethyl)-3-[2-(5-fluoro-2-methyl-6-{[(3S)-1-methyl-2-oxo-2,3,4,7-tetrahydro-1H-azepin-3-yl]amino}-4-pyrimidinyl)hydrazino]-3-oxopropyl}hydroxyformamide] | ≤ 100 | ≤ 100 |
| Cc1nc(NCc2nccs2)c(F)c(NNC(=O)[C@H](CC2CCCC2)CN(O)C=O)n1 [Example 107, N-[(2R)-2-(Cyclopentylmethyl)-3-(2-{5-fluoro-2-methyl-6-[(1,3-thiazol-2-ylmethyl)amino]-4-pyrimidinyl}hydrazino)-3-oxopropyl]-N-hydroxyformamide] | ≤ 100 | ≤ 100 |
| Cc1nc(NCc2ccccn2)c(F)c(NNC(=O)[C@H](CC2CCCC2)CN(O)C=O)n1 [Example 103, [(2R)-2-(Cyclopentylmethyl)-3-(2-{5-fluoro-2-methyl-6-[(2-pyridinylmethyl)amino]-4-pyrimidinyl}hydrazino)-3-oxopropyl]hydroxyformamide] | ≤ 100 | ≤ 100 |
| C[C@H]1CN(C)CCN1c1nc(CF)nc(NNC(=O)[C@H](CC2CCCC2)CN(O)C=O)c1F [Example 126, ((2R)-2-(Cyclopentylmethyl)-3-{2-[6-[(2S)-2,4-dimethyl-1-piperazinyl]-5-fluoro-2-(fluoromethyl)-4-pyrimidinyl]hydrazino}-3-oxopropyl)hydroxyformamide] | ≤ 100 | ≤ 100 |
| O=CN(O)C[C@@H](CC1CCCC1)C(=O)NNc1nc(CF)nc(N2CCN3CCOC[C@@H]3C2)c1F [Example 216, [(2R)-2-(Cyclopentylmethyl)-3-(2-{5-fluoro-2-(fluoromethyl)-6-[(9aS)-hexahydropyrazino[2,1-c][1,4]oxazin-8(1H)-yl]-4-pyrimidinyl}hydrazino)-3-oxopropyl]hydroxyformamide] | ≤ 100 | ≤ 100 |
| CSc1nc(NNC(=O)[C@H](CC2CCCC2)CN(O)C=O)c(F)c(N2CCN(C)[C@H](C)C2)n1 [Example 125, ((2R)-2-(Cyclopentylmethyl)-3-{2-[6-[(3R)-3,4-dimethyl-1-piperazinyl]-5-fluoro-2-(methylthio)-4-pyrimidinyl]hydrazino}-3-oxopropyl)hydroxyformamide] | ≤ 100 | ≤ 100 |
| Cc1nc(NNC(=O)[C@H](CC2CCCC2)CN(O)C=O)c(F)c(Nc2ccccc2)n1 [Example 225, ((2R)-2-(Cyclopentylmethyl)-3-{2-[5-fluoro-2-methyl-6-(phenylamino)-4-pyrimidinyl]hydrazino}-3-oxopropyl)hydroxyformamide] | ≤ 100 | ≤ 100 |
| Cc1nc(NNC(=O)[C@H](CC2CCCC2)CN(O)C=O)c(F)c(N2C[C@@H](O)[C@@H](C)C2)n1 (single isomer, unassigned) [Example 114] | ≤ 100 | ≤ 100 |
| CCc1nc(NNC(=O)[C@H](CC2CCCC2)CN(O)C=O)c(F)c(N2C[C@H](C)[C@@H](N(C)C)C2)n1 (single isomer, unassigned) [Example 100] | ≤ 100 | ≤ 100 |
| CCN1CCN(c2nc(SC)nc(NNC(=O)[C@H](CC3CCCC3)CN(O)C=O)c2F)CC1 [Example 51, ((2R)-2-(Cyclopentylmethyl)-3-{2-[6-(4-ethyl-1-piperazinyl)-5-fluoro-2-(methylthio)-4-pyrimidinyl]hydrazino}-3-oxopropyl)hydroxyformamide] | ≤ 100 | ≤ 100 |
| CSc1nc(NNC(=O)[C@H](CC2CCCC2)CN(O)C=O)c(F)c(N2CCN(C)CC2)n1 [Example 41, ((2R)-2-(Cyclopentylmethyl)-3-{2-[5-fluoro-6-(4-methyl-1-piperazinyl)-2-(methylthio)-4-pyrimidinyl]hydrazino}-3-oxopropyl)hydroxyformamide] | ≤ 100 | ≤ 100 |
| Cc1nc(NCC(=O)N2CCCC2)c(F)c(NNC(=O)[C@H](CC2CCCC2)CN(O)C=O)n1 [Example 69, N-{(2R)-2-(Cyclopentylmethyl)-3-[2-(5-fluoro-2-methyl-6-{[2-oxo-2-(1-pyrrolidinyl)ethyl]amino}-4-pyrimidinyl)hydrazino]-3-oxopropyl}-N-hydroxyformamide] | ≤ 100 | ≤ 100 |
| C[C@@H]1CN(C)CCN1c1nc(Cl)nc(NNC(=O)[C@H](CC2CCC2)CN(O)C=O)c1F [Example 276, [(2R)-3-(2-{2-Chloro-6-[(2R)-2,4-dimethyl-1-piperazinyl]-5-fluoro-4-pyrimidinyl}hydrazino)-2-(cyclobutylmethyl)-3-oxopropyl]hydroxyformamide] | ≤ 100 | ≤ 100 |
| CC(C)[C@H]1CN(c2nc(Cl)nc(NNC(=O)[C@H](CC3CCCC3)CN(O)C=O)c2F)CCN1C [Example 170, [(2R)-3-(2-{2-Chloro-5-fluoro-6-[(3S)-4-methyl-3-(1-methylethyl)-1-piperazinyl]-4-pyrimidinyl}hydrazino)-2-(cyclopentylmethyl)-3-oxopropyl]hydroxyformamide] | ≤ 100 | ≤ 100 |
| Cc1nc(NNC(=O)[C@H](CC2CCCC2)CN(O)C=O)c(F)c(N2CC[C@H]2CO)n1 [Example 66, N-[(2R)-2-(Cyclopentylmethyl)-3-(2-{5-fluoro-6-[(2S)-2-(hydroxymethyl)-1-azetidinyl]-2-methyl-4-pyrimidinyl}hydrazino)-3-oxopropyl]-N-hydroxyformamide] | ≤ 100 | ≤ 100 |
| CSc1nc(NNC(=O)[C@H](CC2CCCC2)CN(O)C=O)c(F)c(N2C[C@@H](C)[C@H](N(C)C)C2)n1 [Example 110, ((2R)-2-(Cyclopentylmethyl)-3-{2-[6-[(3S,4R)-3-(dimethylamino)-4-methyl-1-pyrrolidinyl]-5-fluoro-2-(methylthio)-4-pyrimidinyl]hydrazino}-3-oxopropyl)hydroxyformamide] | ≤ 100 | ≤ 100 |
| CON(C)c1nc(C)nc(NNC(=O)[C@H](CC2CCCC2)CN(O)C=O)c1F [Example 11, [(2R)-2-(Cyclopentylmethyl)-3-(2-{5-fluoro-2-methyl-6-[methyl(methyloxy)amino]-4-pyrimidinyl}hydrazino)-3-oxopropyl]hydroxyformamide] | ≤ 100 | ≤ 100 |
| Cc1nc(NNC(=O)[C@H](CC2CCCC2)CN(O)C=O)c(F)c(N2CC(C)C2)n1 [Example 263, ((2R)-2-(Cyclopentylmethyl)-3-{2-[5-fluoro-2-methyl-6-(3-methyl-1-azetidinyl)-4-pyrimidinyl]hydrazino}-3-oxopropyl)hydroxyformamide] | ≤ 100 | ≤ 100 |
| CCC1(N(C)C)CN(c2nc(Cl)nc(NNC(=O)[C@H](CC3CCCC3)CN(O)C=O)c2F)C1 [Example 211, [(2R)-3-(2-{2-Chloro-6-[3-(dimethylamino)-3-ethyl-1-azetidinyl]-5-fluoro-4-pyrimidinyl}hydrazino)-2-(cyclopentylmethyl)-3-oxopropyl]hydroxyformamide] | ≤ 100 | ≤ 100 |
| Cc1nc(NNC(=O)[C@H](CC2CCCC2)CN(O)C=O)c(F)c(N2CCSC2)n1 [Example 12, ((2R)-2-(Cyclopentylmethyl)-3-{2-[5-fluoro-2-methyl-6-(1,3-thiazolidin-3-yl)-4-pyrimidinyl]hydrazino}-3-oxopropyl)hydroxyformamide] | ≤ 100 | ≤ 100 |
| CCc1nc(NNC(=O)[C@H](CC2CCCC2)CN(O)C=O)c(F)c(N2CC[C@H](O)C2)n1 [Example 29, N-[(2R)-2-(Cyclopentylmethyl)-3-(2-{2-ethyl-5-fluoro-6-[(3S)-3-hydroxy-1-pyrrolidinyl]-4-pyrimidinyl}hydrazino)-3-oxopropyl]-N-hydroxyformamide] | ≤ 100 | ≤ 100 |
| CC[C@H](Nc1nc(C)nc(NNC(=O)[C@H](CC2CCCC2)CN(O)C=O)c1F)C(=O)N(C)C [Example 83, (2S)-2-[(6-{2-[(2R)-3-Cyclopentyl-2-{[formyl(hydroxy)amino]methyl}propanoyl]hydrazino}-5-fluoro-2-methyl-4-pyrimidinyl)amino]-N,N-dimethylbutanamide] | ≤ 100 | ≤ 100 |
| Cc1nc(NNC(=O)[C@H](CC2CCCC2)CN(O)C=O)c(F)c(N2CCN3CCC[C@@H]3C2)n1 [Example 177, [(2R)-2-(Cyclopentylmethyl)-3-(2-{5-fluoro-6-[(8aR)-hexahydropyrrolo[1,2-a]pyrazin-2(1H)-yl]-2-methyl-4-pyrimidinyl}hydrazino)-3-oxopropyl]hydroxyformamide] | ≤ 100 | ≤ 100 |
| O=CN(O)C[C@@H](CC1CCCC1)C(=O)NNc1nc(Cl)nc(N2CCC[C@H]2CN2CCCC2)c1F [Example 224, [(2R)-3-(2-{2-Chloro-5-fluoro-6-[(2S)-2-(1-pyrrolidinylmethyl)-1-pyrrolidinyl]-4-pyrimidinyl}hydrazino)-2-(cyclopentylmethyl)-3-oxopropyl]hydroxyformamide] | ≤ 100 | ≤ 100 |
